The target of one assay is T1, myc-TRIM27 WT (human) (UniProt P14373).
T1 sequence: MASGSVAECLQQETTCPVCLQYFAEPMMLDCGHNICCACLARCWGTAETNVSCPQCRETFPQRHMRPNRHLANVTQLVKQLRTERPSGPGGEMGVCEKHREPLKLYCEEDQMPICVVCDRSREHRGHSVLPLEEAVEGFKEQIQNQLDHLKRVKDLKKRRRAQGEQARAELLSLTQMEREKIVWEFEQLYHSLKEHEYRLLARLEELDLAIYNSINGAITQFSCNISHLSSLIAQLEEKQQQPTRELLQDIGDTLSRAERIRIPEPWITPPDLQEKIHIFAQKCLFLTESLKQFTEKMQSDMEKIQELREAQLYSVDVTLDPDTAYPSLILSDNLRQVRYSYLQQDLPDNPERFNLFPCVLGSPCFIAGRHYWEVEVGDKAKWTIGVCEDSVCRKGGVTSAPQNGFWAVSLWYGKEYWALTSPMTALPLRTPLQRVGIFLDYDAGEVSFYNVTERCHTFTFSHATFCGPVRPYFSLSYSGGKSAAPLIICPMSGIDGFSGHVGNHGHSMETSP
Put plainly: co-IP; reciprocal: HEK293T transiently transfected; myc-tagged TRIM27 precipitated with anti-myc beads (9E10) 3 h at 4°C; immunoblot. On the technique in general: Immunoblotting shows a protein as a band on a membrane.

Protein sequences, listed by entry. Tags and fused reporters are not part of them.
UniProt Q86XT4: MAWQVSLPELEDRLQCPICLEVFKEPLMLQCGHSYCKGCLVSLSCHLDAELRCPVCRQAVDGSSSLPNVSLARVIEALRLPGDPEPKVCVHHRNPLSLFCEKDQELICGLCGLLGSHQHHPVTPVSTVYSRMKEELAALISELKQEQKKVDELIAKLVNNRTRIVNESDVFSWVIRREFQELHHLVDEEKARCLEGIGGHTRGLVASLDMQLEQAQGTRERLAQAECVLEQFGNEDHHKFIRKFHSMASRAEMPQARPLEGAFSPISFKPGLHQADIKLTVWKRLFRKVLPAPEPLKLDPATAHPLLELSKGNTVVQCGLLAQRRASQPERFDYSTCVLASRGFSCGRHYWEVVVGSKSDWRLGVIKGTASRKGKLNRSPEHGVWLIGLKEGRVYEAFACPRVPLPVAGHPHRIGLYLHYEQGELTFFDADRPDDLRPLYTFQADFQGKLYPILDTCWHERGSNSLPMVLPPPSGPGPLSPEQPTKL

Assay [1] deals with T2, human TRIM27 (yeast two-hybrid fusion) (human) (UniProt P14373).
T2 sequence: T1 sequence
Put plainly: two-hybrid; binary LexA/B42 yeast two-hybrid; baits in pEG202, preys in pJG4-5; EGY42/EGY48 diploids by mating; reporters lacZ (blue colonies) and LEU2 (growth without Leu).

For assay [2], the target named is human TRIM50 (yeast two-hybrid fusion) (human) (UniProt Q86XT4). Described as above.
Assay [3] has as its target T3, GST-TRIM27 ΔRING+B-Box (human) (UniProt P14373).
T3 sequence: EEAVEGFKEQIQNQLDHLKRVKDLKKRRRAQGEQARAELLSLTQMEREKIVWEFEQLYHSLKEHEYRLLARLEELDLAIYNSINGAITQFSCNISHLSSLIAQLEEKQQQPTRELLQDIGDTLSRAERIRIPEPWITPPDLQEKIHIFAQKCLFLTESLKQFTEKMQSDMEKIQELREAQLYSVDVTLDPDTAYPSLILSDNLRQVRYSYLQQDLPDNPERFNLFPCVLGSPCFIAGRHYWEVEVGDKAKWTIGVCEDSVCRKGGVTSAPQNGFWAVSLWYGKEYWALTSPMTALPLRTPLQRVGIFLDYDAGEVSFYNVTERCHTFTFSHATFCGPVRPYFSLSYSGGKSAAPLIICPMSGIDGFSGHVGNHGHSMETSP
Put plainly: pull-down; GST or GST-TRIM27 proteins on glutathione-Sepharose beads; [35S]-labeled IVT NOD2 diluted three times in PBS, 2 h at 4°C; five washes with RIPA buffer; autoradiograph; only the target purified.

In the next assay the target is T4, GST-TRIM27 ΔRING (human) (UniProt P14373).
T4 sequence: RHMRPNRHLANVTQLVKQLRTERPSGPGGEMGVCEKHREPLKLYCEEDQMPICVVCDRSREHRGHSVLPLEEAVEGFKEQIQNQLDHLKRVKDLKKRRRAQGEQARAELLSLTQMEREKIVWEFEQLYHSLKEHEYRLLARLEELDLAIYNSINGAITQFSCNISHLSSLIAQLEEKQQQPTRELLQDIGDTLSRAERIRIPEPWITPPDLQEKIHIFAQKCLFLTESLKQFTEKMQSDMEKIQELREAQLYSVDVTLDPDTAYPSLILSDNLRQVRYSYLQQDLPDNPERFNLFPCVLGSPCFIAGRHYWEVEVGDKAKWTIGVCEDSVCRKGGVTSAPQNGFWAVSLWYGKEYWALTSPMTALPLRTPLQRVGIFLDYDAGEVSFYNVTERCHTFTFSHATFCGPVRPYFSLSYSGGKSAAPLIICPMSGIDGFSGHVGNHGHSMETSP
The description is as above.

For a further assay, the target named is T5, GST-TRIM27 WT (human) (UniProt P14373).
T5 sequence: T1 sequence
Described as above.

These are yes or no findings as the source states them, for the method shown. For part of these data: In cells and extracts the contact can be indirect. Some results given as binding are weak or reduced against the parent protein; the word gives no strength. For part of these data: Tags and fused reporters may be left off the sequences shown.

Take Flag-NOD2 (from UniProt Q9HC29 1-1040): in the assay with myc-TRIM27 WT (human), the binding entry is recorded as “binds”.
Take “human NOD2 full length (yeast two-hybrid fusion) (from UniProt Q9HC29 1-1040)”: the binding entry in assay [1] is given as “binds”.
Take “human TRIM50 (yeast two-hybrid fusion) (from UniProt Q86XT4 1-487)”: the binding entry in assay [2] was “binds”.
“in vitro transcribed and translated [35S]-methionine-labeled NOD2 (from UniProt Q9HC29 1-1040)”: the binding result (in assay [3]; with GST-TRIM27 ΔRING (human); in the assay with GST-TRIM27 WT (human)) was “binds” throughout.

(Values after publication PMC3400628.)
